Results reported in PubChem BioAssay AID1347076 (National Center for Advancing Translational Sciences (NCATS), 2019).
Hit rate of the full screen: of about 400,000 compounds, about 13,000 (3.2%) were called active. Inconclusive results, whose numbers are uncertain, are shown with a selection of clear calls. The call rests on the fitted dose curve; in most records, active means well fitted cell-killing curve with a large enough effect; inconclusive means small, poorly fitted or top-dose-only effect, or effect the other way; inactive means flat fitted curve, though single readings scatter. Where the call is inconclusive, the potency comes from a doubtful curve fit.

assay: qHTS assay for MDR1-selective chemotherapeutics: Primary screen using the drug-selected MDR subline cells KB-V1; conditions: KB-V1 MDR cells viability, CellTiter-Glo, 72 h; activity change, negative = cytotoxicity: at 46.1 µM (top of the series); further: nearly all actives have a fitted effect of over 60% in size
Outline: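 Cytotoxicity via CellTiter-Glo luminescence after 72 h compound exposure at 37 degrees C. Cells: drug-selected KB-V1 line, DMEM phenol-red free plus 10% FBS. Compounds tested at multiple concentrations; normalized data fitted to concentration-effect curves.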
On the % scale 0 is the no-effect control and ±100 the full control effect; potency means the concentration at half of the fitted maximal effect.

Row | SMILES | Potency | activity change, negative = cytotoxicity
1 | CCC(OC(=O)c1ccc(S(C)(=O)=O)c([N+](=O)[O-])c1)C(=O)NC1C2CC3CC(C2)CC1C3 (stereo not given) | inconclusive: 16.4 µM [cytotoxic, single point] | 
2 | Cc1sc2ncn3cnnc3c2c1C | inconclusive: 16.4 µM [cytotoxic, partial curve, poor fit] | 
3 | CCOC(=O)c1ccc(-c2ccc(C3Nc4ccccc4C(=O)N3O)o2)cc1 (stereo not given) | inconclusive: 2.31 µM [cytotoxic, partial curve, poor fit] | 
4 | C/C(=N\Nc1nc(-c2cc(C)ccc2C)cs1)c1cc2c(ccc3ccccc32)oc1=O | inconclusive: 29.1 µM [cytotoxic, single point] | 
5 | COc1ccccc1NC(=O)[C@H](COCc1ccccc1)NC(=O)OC(C)(C)C | inconclusive: 20.6 µM [cytotoxic, partial curve] | 
6 | CCOC(=O)Cc1ccc2sc(-c3ccccc3)nc2c1 | inconclusive: 20.6 µM [cytotoxic, partial curve, poor fit] | 
7 | CNc1cncc(-c2cc(OC)c(OC)c(OC)c2)n1 | inactive | 
8 | CCOc1ccc(S(=O)(=O)N(CC)CC(=O)N2CCCC2)cc1C | inconclusive: 8.2 µM [cytotoxic, partial curve] | 
9 | CN1CCN(CC(O)COC(c2ccc(Cl)cc2)c2ccc(Cl)cc2)CC1 (stereo not given) | inactive | 
10 | CCOC(=O)c1c(C)nc2sc(C(N)=O)c(N)c2c1-c1ccc(OC)cc1 | inconclusive: 10.3 µM [cytotoxic, partial curve, poor fit] | 
11 | CCS(=O)(=O)Nc1c(C(=O)O)[nH]c2ccccc12 |  | inconclusive: 10.4%
12 | COc1ccc(-n2ncc3c(=O)n(CC(=O)N4c5ccccc5CC4C)cnc32)cc1 (stereo not given) | inactive | 
13 | COc1ccc(CCn2c(NN)nc3c2c(=O)[nH]c(=O)n3C)cc1 | inconclusive: 18.4 µM [cytotoxic, partial curve, poor fit] | 
14 | Cc1ccc(NC(=O)C2CC(=O)N(C(C)c3ccccc3)C2)cc1 (stereo not given) | active: 18.4 µM | 
15 | Cc1ccc(NC(=O)c2c(C)oc3ncn(CC(C)C)c(=O)c23)nc1 | inactive | 
16 | O=C(Nc1cccc(OC(F)(F)F)c1)c1cccc2c(-c3cccnc3)coc12 | inactive | 
17 | Cc1cccc(CN2C(=O)c3ccccc3S(=O)(=O)c3ccc(C(=O)NC4CCCCC4)cc32)c1 | inactive | 
18 | COc1ccc(NC(=S)N(CCCN2CCCC2)Cc2cccn2Cc2ccc(Cl)cc2)cc1Cl | active: 18.4 µM | 
19 | COC(=O)c1ccc(Cn2c(O)c(N=O)c3ccccc32)o1 | inactive | 
20 | O=S(=O)(/N=C(/Nc1ccc(Cl)cc1Cl)c1ccccc1)c1cccs1 |  | inconclusive: 3.81%
21 | CCOC(=O)C1=C(C)N=c2s/c(=C\c3cccc(OCC(=O)O)c3)c(=O)n2C1c1ccccc1OC (stereo not given) | inactive | 
22 | CCc1ccc(OCc2ccccc2C(=O)Nc2ccc3nc(C)cc(N)c3c2)cc1 | inconclusive: 18.4 µM [cytotoxic, single point] | 
23 | CCOc1ncccc1C(=O)Nc1cccc(S(=O)(=O)N2CCOCC2)c1 | inactive | 
24 | C[C@H](O)[C@@H]1CN2CCc3c([nH]c4ccccc34)[C@@H]2C[C@@H]1N(C)C(=O)OCc1ccccc1 | inconclusive: 20.6 µM [cytotoxic, single point] | 

Pulled by structure from the list above:
Row | SMILES | Potency | activity change, negative = cytotoxicity
16 | O=C(Nc1cccc(OC(F)(F)F)c1)c1cccc2c(-c3cccnc3)coc12 | inactive | 
10 | CCOC(=O)c1c(C)nc2sc(C(N)=O)c(N)c2c1-c1ccc(OC)cc1 | inconclusive: 10.3 µM [cytotoxic, partial curve, poor fit] | 
13 | COc1ccc(CCn2c(NN)nc3c2c(=O)[nH]c(=O)n3C)cc1 | inconclusive: 18.4 µM [cytotoxic, partial curve, poor fit] | 
7 | CNc1cncc(-c2cc(OC)c(OC)c(OC)c2)n1 | inactive | 
11 | CCS(=O)(=O)Nc1c(C(=O)O)[nH]c2ccccc12 |  | inconclusive: 10.4%
2 | Cc1sc2ncn3cnnc3c2c1C | inconclusive: 16.4 µM [cytotoxic, partial curve, poor fit] | 

Additional structures:

Row | SMILES | Potency | activity change, negative = cytotoxicity
25 | CC(NC(=O)CSc1nc(-c2ccccc2F)nc2cc(=O)[nH]n12)c1nc2ccccc2n1C (stereo not given) | inconclusive: 20.6 µM [rising, single point] | 
26 | COc1ccc(-c2cc(C(=O)N/N=C/c3sccc3C)c3ccccc3n2)c(OC)c1 | inconclusive: 16.4 µM [cytotoxic, partial curve] | 
27 | CC(=O)Nc1ccc(-c2ccnc3c2CC(C)(C(=O)NC(C)C)O3)cc1 (stereo not given) | inactive | 
28 | Cn1c(Oc2ccc(Cl)cc2)c(C=O)c2ccccc21 | inconclusive: 29.1 µM [cytotoxic, single point] | 
29 | CCCCc1ccc(NC(=O)CSCc2cc(=O)[nH][nH]2)cc1 | inconclusive: 35.5 µM [rising, single point] | 
30 | COc1ccccc1OCCNC(=O)CSC(=S)N1CCCC1 | inactive | 
31 | CCOC(=O)Cc1csc(NC(=O)c2ccc(Br)o2)n1 | inactive | 
32 | Cc1ccccc1Cn1c(C)c(C(=O)NCc2ccc(Cl)c(Cl)c2)sc1=O | inconclusive: 20.6 µM [cytotoxic, single point] | 
33 | Cc1cccn2cc(-c3cccc(S(=O)(=O)N4CC(C)OC(C)C4)c3)nc12 (stereo not given) |  | inconclusive: 34.8%
34 | CCOC(=O)c1cc2c(C)n(-c3ccc(N(C)C)cc3)c(C)c2cc(C(=O)OCC)c1=O | inconclusive: 0.731 µM [cytotoxic, full curve] | 
35 | CCn1c(=O)c2sccc2n2c(CCC(=O)Nc3ccc(C(C)C)cc3)nnc12 | inactive | 
36 | O=C(Nc1ccccc1SCC1CSc2nc3ccccc3c(=O)n21)c1ccccc1Cl (stereo not given) | inconclusive: 25.9 µM [cytotoxic, partial curve, poor fit] | 
37 | O=C(CCC1CCCCC1)Nc1ccccc1-c1ccccc1 | inconclusive: 20.6 µM [cytotoxic, single point] | 
38 | COc1cc(/C=N/N2C(=O)CSC2=S)cc(Br)c1O | inconclusive: 16.4 µM [rising, partial curve, poor fit] | 
39 | O=C(CSc1ncnc2c1nnn2Cc1ccccc1F)N1CCN(c2ccccc2)CC1 | inconclusive: 32.6 µM [cytotoxic, single point] | 
40 | Cc1cccc(NC(=S)N(CCCN2CCCC2)Cc2cccn2Cc2ccc(Cl)cc2)c1 | inconclusive: 2.59 µM [cytotoxic, partial curve, poor fit] | 
41 | CCCCN1C(=O)C(=O)N(CC(=O)Nc2ccc(OC(F)(F)F)cc2)C1=O | inconclusive: 16.4 µM [rising, single point] | 
42 | COc1ccc(Cc2nc3ccc(C(=O)N(C)Cc4nccs4)cc3o2)cc1OC | inactive | 
43 | Cc1cccc(CNC(=O)c2sc(=O)n(Cc3ccccc3C)c2C)c1 | inconclusive: 7.31 µM [cytotoxic, partial curve] | 
44 | COc1cccc(C2[C@H](C)C3(CCN2C)OCCO3)c1 (stereo not given in full) |  | inconclusive: -0.45%
45 | COc1ccc(-c2cc(=O)c3ccccc3s2)cc1 | active: 14.6 µM | 
46 | CCN(CC)c1cc(Cl)c2nonc2c1N | inconclusive: 0.82 µM [rising, partial curve] | 
47 | Cc1cccc(N2CCN(C(=S)Nc3ccc4nc(N5CCN(C)CC5)cc(C)c4c3)CC2)c1C | inconclusive: 20.6 µM [cytotoxic, single point] | 
48 | CCc1nnc(SC(CC)C(=O)Nc2cc(C)ccc2C)c2cc3occc3n12 (stereo not given) | inactive | 

Row | SMILES | Potency | activity change, negative = cytotoxicity
49 | O=C(NCC1CCCO1)C(c1cccs1)N(C(=O)c1ccc(-c2ccccc2)[nH]1)C1CCCC1 (stereo not given) | inconclusive: 11.6 µM [cytotoxic, partial curve, poor fit] | 
50 | CCOc1ccccc1N1CCN(C(=O)COc2ccc3c(C)cc(=O)oc3c2)CC1 | inconclusive: 18.4 µM [cytotoxic, partial curve] | 
51 | Cc1c(Cl)c([N+](=O)[O-])nn1CC(=O)NC(C)C1CC2CCC1C2 (stereo not given) | inactive | 
52 | O=C(COC(=O)c1cc(-c2ccccc2)nc2ccccc12)Nc1ccc2c(c1)OCO2 | inconclusive: 0.731 µM [rising, partial curve, poor fit] | 
53 | CCc1ccccc1NC(=O)CC1SCCNC1=O (stereo not given) | inactive | 
54 | COc1cccc(/C=C2\SC(=S)N(CC3CCCO3)C2=O)c1 (stereo not given) | inactive | 
55 | COc1ccc(-c2nn(-c3ccccc3)cc2C(=O)OCC(=O)c2ccc(C)c([N+](=O)[O-])c2)cc1 | inconclusive: 29.1 µM [cytotoxic, single point] | 
56 | Cc1cc(Nc2ccc(Cl)cc2)n(-c2cccc(Cl)c2)n1 | inconclusive: 20.6 µM [cytotoxic, partial curve] | 
57 | CC1CCN(S(=O)(=O)c2nnc(NC(=O)COc3ccccc3)s2)CC1 | inconclusive: 20.6 µM [rising, single point] | 
58 | COc1ccc(C(=O)Oc2ccc(C(=S)N3CCOCC3)cc2)cc1 | inactive | 
59 | COc1ccccc1-c1nnc(SCC(=O)Nc2nc(-c3ccccc3)cs2)n1C | inconclusive: 23.1 µM [cytotoxic, partial curve] | 
60 | COc1cc(C2c3c(oc4ccccc4c3=O)C(=O)N2Cc2ccc(C)cc2)ccc1O (stereo not given) | inconclusive: 9.2 µM [rising, partial curve, poor fit] | 
61 | CC(=O)Nc1cccc(C(=O)OCc2csc(CC(=O)Nc3ccccc3C)n2)c1 | active: 20.6 µM | 
62 | COc1ccc(OC)c(S(=O)(=O)NC2CCN(Cc3ccccc3)CC2)c1 | inconclusive: 9.2 µM [cytotoxic, partial curve] | 
63 | CC1=C(C(=O)OC2CCCCCC2)C(c2ccc(C)o2)C2=C(CCCC2=O)N1 (stereo not given) | inconclusive: 29.1 µM [cytotoxic, single point] | 
64 | Cc1ccccc1OCCC(=O)OCC(=O)NNC(=O)c1cccs1 | inactive | 
65 | COc1ccc(N2CCN(c3ncnc4c3cnn4-c3ccc(C)c(Cl)c3)CC2)cc1 | inconclusive: 25.9 µM [rising, single point] | 
66 | Cc1ccc(Cl)cc1N1CCN(C(=O)CN2C(=O)COc3ccc(S(=O)(=O)N4CCC(C)CC4)cc32)CC1 | inconclusive: 7.31 µM [cytotoxic, partial curve] | 
67 | O=C(OCC(=O)c1ccccc1Br)c1ccncc1 | inconclusive: 14.6 µM [rising, partial curve, poor fit] | 
68 | COC(=O)N/N=C/c1cc(C)n(-c2cccc3ccccc23)c1C | active: 20.6 µM | 
69 | CCCCCn1c2nc3ccccc3nc2c2c(=O)n(CC(C)C)cnc21 | inactive | 
70 | Cc1nn(-c2ccccc2)c(C)c1NC(=O)COC(=O)CC(C)c1ccccc1 (stereo not given) | inconclusive: 16.4 µM [rising, single point] | 
